Measurements: patent publication US20250381269A1, “BISPECIFIC ANTIBODY BINDING EGFR AND B7-H3” (FORTVITA BIOLOGICS (SINGAPORE) PTE. LTD., priority 2022, published 2025)
No constants are given. Whether binding was seen depends on the method and setting. Some binding calls cover weakened binding; strength is not graded here.

Biological target: T1, B7H3 (human) (UniProt Q5ZPR3)
T1 sequence (membrane protein chain, looked up): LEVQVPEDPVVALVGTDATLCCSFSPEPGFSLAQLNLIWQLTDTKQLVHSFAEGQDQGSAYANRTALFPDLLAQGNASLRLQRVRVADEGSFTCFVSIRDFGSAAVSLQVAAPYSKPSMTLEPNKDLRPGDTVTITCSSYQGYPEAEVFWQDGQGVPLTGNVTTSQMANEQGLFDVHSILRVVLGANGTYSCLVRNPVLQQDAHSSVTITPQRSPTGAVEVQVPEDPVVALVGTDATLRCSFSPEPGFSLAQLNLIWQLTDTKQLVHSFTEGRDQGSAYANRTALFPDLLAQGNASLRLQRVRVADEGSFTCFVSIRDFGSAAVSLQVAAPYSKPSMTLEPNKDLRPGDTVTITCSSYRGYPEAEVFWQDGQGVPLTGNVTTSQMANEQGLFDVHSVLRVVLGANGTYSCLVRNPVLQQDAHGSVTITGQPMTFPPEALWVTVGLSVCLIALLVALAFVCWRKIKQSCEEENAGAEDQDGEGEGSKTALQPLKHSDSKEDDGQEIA
Assay: flow cytometry on cell lines, 10 µg/mL antibody, APC-anti human Fc secondary antibody, y axis 'Fold of expression (mAb/IgG)'

B1: Hz20G5.26mAb (antibody, V domains shown)
VH: QVQLVQSGAEVKKPGASVKVSCKASGYTFTEYIMHWVRQAPGQRLEWMGGINPGTGGTTYNQKFKDRVTITVDTSASTAYMELSSLRSEDTAVYYCTRRTPPWHFAVWGQGTLVTVSS
VL: DIQLTQSPSFLSASVGDRVTITCSASSSVSYIHWYQQKPGKAPKRWIYDTSRLASGVPSRFSGSGSGTEFTLTISSLQPEDFATYYCQQWSSAPLTFGGGTKVEIK
In the case of B1, the binding is reported as “binds”.
